This experiment relates to nude mice, A549 intrarenal xenograft, tumor weight change. Put plainly: NCI In Vivo Anticancer Drug Screen. Data for tumor model A549 Human Adenocarcinoma of Lung with characteristics of Type II Alveolar Epithelial cells (intrarenal inoculation) in NU/NU BALB/C (nude) mice. Particulars: T/C endpoint: mean tumor weight change, schedule: Q04DX003 (ip), higher T/C = larger tumour; for T/C: evaluated on day 12. The procedure, abridged: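 Activity is expressed as T/C: the treated-group value over the vehicle-treated control value. The measure was survival or tumor size in mice carrying transplantable tumors.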

The list shows only some results of the screen, not a fair sample: it is rich in T/C values a quarter to a half above the control, in often repeated tests (any T/C) and in doses without a T/C. Other doses and runs of a compound stand elsewhere. T/C gives the treated animals as a percentage of the vehicle group. Schedule codes are those of the source, read here as Q, the interval in days (D) or hours (H), X, the number of doses. Some entries give survivors of the animals treated and no T/C: the source holds a T/C of zero for them, seemingly a mark for toxic or unscored doses. Survivors were counted at the toxicity check, usually on the fifth day, unless a day is given; later deaths do not show.

As for `COC1CC2C=C(C)/C=C/C=C/C(=O)NC(c3ccccc3)C/C=C/CCC(O)CC(=O)C2=C1O` (stereo not given), under “dose: 300.0 mg/kg/injection, vehicle: Klucel (hydroxypropylcellulose) (HPC)”, the survivor count is 0 of 6 on day 12.

As to `Cc1ccoc1`, the survivor count (dose: 400.0 mg/kg/injection, vehicle: saline with Tween-80) is listed as 0 of 6 on day 12.

As for `O=C([O][Bi]([c]1ccccc1)[c]1ccccc1)c1ccccc1`, the T/C (dose: 100.0 mg/kg/injection, vehicle: Klucel (hydroxypropylcellulose) (HPC)) was 145 % of control.

With `COc1ccc(C(C)c2cc3c(cc2OC)OCO3)cc1` (stereo not given), the T/C (dose: 50.0 mg/kg/injection, vehicle: saline with Tween-80) is 127 % of control. In addition, where the note is “dose: 200.0 mg/kg/injection, vehicle: saline with Tween-80”, the survivor count is recorded as 1 of 6 on day 12.

`O=[N+]([O-])c1ccc([I+]c2ccccc2)cc1`: the survivor count (dose: 150.0 mg/kg/injection, vehicle: Klucel (hydroxypropylcellulose) (HPC)) is on record as 0 of 6 on day 12.

Turning to `O=C1c2ccccc2C(Cl)(c2ccc(Cl)cc2)c2ccc(Cl)cc21` (stereo not given), the T/C (dose: 300.0 mg/kg/injection, vehicle: saline with Tween-80) is 145 % of control. In addition, the survivor count runs as follows: (dose: 600.0 mg/kg/injection, vehicle: saline with Tween-80) 2 of 6 on day 12; (dose: 1200.0 mg/kg/injection, vehicle: saline with Tween-80) 1 of 6 on day 12.

With `CC#CCOCC(O)CCl` (stereo not given), under “dose: 800.0 mg/kg/injection, vehicle: saline”, the survivor count is reported as 2 of 6 on day 12.

Take `[Cl][Pt][Cl].[NH-]C(CO)C(=O)O` (stereo not given): the T/C (dose: 18.75 mg/kg/injection, vehicle: water) is 131 % of control.

As to `CC[C@@]1(O)C(=O)OCc2c1cc1n(c2=O)Cc2cc3ccccc3nc2-1`, the survivor count is 3 of 6 on day 12 (dose: 16.7 mg/kg/injection, vehicle: saline with Tween-80); 2 of 6 on day 12 (dose: 20.0 mg/kg/injection, vehicle: saline with Tween-80); 1 of 6 on day 12 (dose: 27.8 mg/kg/injection, vehicle: saline with Tween-80); 0 of 6 on day 12 (dose: 40.0 mg/kg/injection, vehicle: saline with Tween-80); 0 of 6 on day 12 (dose: 54.0 mg/kg/injection, vehicle: saline with Tween-80); 0 of 6 on day 12 (dose: 80.0 mg/kg/injection, vehicle: saline with Tween-80). In addition, the survivor count runs as follows: (dose: 90.0 mg/kg/injection, vehicle: saline with Tween-80) 0 of 6 on day 12; (dose: 150.0 mg/kg/injection, vehicle: saline with Tween-80) 0 of 6 on day 12; (dose: 250.0 mg/kg/injection, vehicle: saline with Tween-80) 0 of 6 on day 12.

The record behind these values is PubChem BioAssay AID278 (DTP/NCI, 2004).
